Reference: the supplement of paper PMC6411743
± gives the standard deviation of the averaged measurements. The list shows a part of the results, in another mix than the full data. Most entries show no effect beyond the scatter of the controls.

By UniProt entry, the sequences of proteins in these tests, tags left out. Where a name states a change or a piece, a line headed by the entry shows the natural chain unless it says otherwise.
UniProt Q9NYZ3: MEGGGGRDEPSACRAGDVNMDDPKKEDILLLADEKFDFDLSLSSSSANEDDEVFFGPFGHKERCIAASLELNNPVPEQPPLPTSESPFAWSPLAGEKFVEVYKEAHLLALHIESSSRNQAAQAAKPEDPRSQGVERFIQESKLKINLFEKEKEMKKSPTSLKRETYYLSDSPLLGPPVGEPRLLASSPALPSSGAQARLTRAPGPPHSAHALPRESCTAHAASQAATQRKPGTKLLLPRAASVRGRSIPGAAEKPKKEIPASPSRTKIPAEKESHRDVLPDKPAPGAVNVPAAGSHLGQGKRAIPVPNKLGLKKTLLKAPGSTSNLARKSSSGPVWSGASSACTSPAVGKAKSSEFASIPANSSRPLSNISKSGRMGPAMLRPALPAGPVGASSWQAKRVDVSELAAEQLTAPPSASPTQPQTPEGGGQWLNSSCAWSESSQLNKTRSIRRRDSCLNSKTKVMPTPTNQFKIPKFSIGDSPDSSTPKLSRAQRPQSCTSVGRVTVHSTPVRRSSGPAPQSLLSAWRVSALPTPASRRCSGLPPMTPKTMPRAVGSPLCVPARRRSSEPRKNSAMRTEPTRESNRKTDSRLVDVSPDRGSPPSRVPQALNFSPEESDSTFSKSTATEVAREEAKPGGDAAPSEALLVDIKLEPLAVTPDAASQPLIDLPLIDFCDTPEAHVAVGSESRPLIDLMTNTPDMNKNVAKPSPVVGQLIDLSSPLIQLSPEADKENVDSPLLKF
UniProt Q9NUS5: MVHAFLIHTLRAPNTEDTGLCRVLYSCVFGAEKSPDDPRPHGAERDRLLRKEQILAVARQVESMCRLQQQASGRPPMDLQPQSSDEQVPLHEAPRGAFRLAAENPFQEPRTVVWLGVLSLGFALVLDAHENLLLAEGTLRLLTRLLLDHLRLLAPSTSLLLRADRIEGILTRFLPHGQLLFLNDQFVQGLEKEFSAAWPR
UniProt Q9NXX6: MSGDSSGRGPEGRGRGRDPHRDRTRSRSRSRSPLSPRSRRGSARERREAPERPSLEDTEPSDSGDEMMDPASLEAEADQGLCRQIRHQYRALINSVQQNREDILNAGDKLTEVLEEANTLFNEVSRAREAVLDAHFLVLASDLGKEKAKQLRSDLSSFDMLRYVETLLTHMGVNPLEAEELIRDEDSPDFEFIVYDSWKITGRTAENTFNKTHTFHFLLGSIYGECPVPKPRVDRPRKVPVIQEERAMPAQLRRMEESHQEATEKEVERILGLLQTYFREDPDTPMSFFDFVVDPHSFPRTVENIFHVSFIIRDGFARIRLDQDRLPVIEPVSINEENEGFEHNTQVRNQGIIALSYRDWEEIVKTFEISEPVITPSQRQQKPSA
UniProt Q9NZ01: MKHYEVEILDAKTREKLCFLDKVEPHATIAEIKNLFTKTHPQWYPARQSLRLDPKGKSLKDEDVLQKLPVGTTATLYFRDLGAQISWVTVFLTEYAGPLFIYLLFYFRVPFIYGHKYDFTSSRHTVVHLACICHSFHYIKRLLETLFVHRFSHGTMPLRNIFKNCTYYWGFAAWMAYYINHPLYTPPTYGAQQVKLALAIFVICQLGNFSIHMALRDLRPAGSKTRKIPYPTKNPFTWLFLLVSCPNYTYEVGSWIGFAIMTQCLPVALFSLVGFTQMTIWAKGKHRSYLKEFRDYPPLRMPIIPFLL
UniProt Q9NRX4: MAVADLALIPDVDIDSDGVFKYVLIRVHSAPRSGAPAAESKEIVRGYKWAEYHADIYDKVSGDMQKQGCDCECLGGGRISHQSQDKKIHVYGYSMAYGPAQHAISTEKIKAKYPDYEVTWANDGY
UniProt Q9NXR1: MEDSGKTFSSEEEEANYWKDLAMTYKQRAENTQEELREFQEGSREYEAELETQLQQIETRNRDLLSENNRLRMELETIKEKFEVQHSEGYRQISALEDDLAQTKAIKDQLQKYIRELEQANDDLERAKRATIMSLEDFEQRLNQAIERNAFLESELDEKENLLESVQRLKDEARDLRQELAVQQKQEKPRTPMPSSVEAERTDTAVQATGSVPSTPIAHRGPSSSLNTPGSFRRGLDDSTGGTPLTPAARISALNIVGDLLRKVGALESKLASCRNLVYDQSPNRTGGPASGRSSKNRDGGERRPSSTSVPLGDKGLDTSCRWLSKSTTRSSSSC
UniProt Q9NR50: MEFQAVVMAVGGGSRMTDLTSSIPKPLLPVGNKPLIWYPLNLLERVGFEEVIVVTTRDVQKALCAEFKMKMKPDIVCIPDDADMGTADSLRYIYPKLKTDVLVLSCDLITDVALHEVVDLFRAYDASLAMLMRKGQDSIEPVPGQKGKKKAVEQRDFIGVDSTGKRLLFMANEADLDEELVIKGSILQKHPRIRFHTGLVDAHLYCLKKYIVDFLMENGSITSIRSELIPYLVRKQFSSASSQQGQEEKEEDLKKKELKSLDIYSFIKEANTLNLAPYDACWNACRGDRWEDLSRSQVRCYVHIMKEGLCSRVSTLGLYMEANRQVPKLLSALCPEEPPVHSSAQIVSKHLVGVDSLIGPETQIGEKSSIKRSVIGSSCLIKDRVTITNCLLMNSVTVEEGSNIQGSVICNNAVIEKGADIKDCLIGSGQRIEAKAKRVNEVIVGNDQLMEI
UniProt Q9NRB3: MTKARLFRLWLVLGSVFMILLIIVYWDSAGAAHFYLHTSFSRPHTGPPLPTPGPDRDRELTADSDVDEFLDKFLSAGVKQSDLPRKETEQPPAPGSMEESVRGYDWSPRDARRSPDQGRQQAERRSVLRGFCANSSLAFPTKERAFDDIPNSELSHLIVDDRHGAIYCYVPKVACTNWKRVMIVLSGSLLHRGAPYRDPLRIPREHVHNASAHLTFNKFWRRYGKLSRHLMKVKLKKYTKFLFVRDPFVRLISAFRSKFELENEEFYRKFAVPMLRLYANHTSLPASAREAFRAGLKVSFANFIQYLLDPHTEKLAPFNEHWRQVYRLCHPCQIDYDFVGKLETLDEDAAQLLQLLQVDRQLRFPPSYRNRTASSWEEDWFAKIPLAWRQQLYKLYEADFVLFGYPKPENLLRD
UniProt Q9P0J1: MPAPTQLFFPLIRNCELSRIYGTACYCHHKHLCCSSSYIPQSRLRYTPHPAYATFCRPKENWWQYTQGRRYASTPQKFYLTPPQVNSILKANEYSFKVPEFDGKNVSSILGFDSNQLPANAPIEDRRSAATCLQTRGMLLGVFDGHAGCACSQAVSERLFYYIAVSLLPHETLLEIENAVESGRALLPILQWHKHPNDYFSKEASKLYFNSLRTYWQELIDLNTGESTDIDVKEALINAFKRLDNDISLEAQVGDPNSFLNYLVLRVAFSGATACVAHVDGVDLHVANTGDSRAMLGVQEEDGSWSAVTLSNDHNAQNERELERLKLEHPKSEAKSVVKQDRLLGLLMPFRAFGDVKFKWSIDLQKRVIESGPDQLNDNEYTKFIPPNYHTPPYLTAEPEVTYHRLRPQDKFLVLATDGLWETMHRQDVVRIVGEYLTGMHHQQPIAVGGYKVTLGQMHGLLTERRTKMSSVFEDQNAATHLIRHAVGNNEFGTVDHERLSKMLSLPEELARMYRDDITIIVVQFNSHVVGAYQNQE
UniProt Q9UBL3, whole entry: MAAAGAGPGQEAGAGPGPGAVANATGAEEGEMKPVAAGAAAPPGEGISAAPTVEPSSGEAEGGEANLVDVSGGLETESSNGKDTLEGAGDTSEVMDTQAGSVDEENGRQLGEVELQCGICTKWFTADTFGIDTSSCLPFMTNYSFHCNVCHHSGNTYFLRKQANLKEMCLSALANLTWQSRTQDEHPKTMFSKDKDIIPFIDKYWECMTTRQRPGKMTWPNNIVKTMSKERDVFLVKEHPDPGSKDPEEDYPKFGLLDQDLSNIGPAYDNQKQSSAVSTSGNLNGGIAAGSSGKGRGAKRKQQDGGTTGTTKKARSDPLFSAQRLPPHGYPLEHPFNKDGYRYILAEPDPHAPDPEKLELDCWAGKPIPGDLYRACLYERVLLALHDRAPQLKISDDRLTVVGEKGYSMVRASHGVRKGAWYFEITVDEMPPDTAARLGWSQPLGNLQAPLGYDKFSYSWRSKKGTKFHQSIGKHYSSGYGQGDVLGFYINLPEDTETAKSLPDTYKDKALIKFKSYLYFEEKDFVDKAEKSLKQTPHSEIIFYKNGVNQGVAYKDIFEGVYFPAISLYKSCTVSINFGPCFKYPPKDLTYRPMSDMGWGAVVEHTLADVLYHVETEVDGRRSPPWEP
UniProt Q9NWX6: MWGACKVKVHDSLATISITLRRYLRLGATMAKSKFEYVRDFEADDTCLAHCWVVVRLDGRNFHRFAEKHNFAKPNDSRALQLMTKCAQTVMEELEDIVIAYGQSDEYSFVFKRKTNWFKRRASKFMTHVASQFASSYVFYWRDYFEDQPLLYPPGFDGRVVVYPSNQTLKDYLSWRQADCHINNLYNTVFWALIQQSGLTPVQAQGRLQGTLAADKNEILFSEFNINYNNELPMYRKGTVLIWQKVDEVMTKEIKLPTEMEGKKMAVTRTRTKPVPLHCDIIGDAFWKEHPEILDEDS
UniProt Q9NRY2: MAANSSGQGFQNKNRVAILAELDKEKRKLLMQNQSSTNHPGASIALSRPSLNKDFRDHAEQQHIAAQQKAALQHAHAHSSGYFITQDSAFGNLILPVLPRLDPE
UniProt Q9NXC5: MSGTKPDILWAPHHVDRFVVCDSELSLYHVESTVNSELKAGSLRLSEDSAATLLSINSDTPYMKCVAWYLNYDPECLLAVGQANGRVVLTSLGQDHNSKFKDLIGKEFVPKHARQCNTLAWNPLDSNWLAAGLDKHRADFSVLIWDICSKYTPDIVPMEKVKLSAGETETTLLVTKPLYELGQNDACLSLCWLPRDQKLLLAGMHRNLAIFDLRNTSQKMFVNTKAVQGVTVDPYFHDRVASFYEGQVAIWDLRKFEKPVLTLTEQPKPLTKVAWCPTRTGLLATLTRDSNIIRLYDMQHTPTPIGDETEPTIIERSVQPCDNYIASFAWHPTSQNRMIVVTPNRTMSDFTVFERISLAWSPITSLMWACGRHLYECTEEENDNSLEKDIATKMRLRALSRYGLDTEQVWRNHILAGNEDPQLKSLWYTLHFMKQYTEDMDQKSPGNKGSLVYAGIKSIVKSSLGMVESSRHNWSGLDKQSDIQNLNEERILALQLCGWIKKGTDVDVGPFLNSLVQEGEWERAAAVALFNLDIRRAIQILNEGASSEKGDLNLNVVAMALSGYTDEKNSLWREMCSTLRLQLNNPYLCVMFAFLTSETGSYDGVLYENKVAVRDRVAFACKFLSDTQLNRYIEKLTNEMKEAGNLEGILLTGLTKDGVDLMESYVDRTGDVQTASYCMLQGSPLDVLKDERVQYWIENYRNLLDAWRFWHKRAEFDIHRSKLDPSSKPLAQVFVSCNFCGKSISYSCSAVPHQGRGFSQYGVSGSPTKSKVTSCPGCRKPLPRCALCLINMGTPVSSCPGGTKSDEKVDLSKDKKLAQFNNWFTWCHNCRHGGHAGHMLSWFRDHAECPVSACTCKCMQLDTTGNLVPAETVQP
UniProt Q9NQR4: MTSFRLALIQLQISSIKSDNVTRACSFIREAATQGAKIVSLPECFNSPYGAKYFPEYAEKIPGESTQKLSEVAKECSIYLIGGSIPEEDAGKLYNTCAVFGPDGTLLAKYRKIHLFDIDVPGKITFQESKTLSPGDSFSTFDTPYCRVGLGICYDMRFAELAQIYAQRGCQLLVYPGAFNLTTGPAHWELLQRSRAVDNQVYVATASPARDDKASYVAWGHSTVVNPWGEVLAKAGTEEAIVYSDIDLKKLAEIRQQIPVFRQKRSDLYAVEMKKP
UniProt Q9NVH6: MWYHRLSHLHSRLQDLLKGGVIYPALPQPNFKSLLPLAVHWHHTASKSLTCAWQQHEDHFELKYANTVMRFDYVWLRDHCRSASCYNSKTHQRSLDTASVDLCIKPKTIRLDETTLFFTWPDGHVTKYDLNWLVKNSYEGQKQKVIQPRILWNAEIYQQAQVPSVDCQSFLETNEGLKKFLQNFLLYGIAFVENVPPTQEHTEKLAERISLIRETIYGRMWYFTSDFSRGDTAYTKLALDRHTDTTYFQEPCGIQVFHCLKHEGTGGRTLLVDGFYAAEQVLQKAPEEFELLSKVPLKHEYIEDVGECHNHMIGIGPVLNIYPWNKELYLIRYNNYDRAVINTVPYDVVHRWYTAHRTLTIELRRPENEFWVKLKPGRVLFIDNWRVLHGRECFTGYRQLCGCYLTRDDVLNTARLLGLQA
UniProt Q9NX46: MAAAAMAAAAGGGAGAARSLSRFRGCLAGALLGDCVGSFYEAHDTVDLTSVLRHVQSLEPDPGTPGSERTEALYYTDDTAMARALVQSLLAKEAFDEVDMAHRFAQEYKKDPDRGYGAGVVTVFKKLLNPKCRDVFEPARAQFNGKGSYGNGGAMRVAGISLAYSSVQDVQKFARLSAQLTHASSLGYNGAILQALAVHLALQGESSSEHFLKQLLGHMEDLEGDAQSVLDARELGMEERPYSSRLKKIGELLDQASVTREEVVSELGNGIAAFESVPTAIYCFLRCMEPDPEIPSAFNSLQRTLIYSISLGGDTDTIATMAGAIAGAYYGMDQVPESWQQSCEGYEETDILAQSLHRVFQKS

Compound: Nc1ncnc2c1ncn2[C@@H]1O[C@H](COP(=O)(O)OP(=O)(O)NP(=O)(O)O)[C@@H](O)[C@H]1O [adenylyl imidodiphosphate]
Assay: NP40-soluble protein abundance relative to vehicle (solubility fold change) (ratio); higher = more soluble protein in presence of AMP-PNP
Conditions: concentration: 0.1mM
Summary of the method: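 Jurkat crude lysate prepared with a Dounce homogeniser was treated at eight concentrations spanning 0.1 to 10 mM, 10 min at room temperature then 3 min at 37 °C. Solubilisation with 0.8% NP40 and benzonase and ultracentrifugation preceded TMT labelling of the supernatant for LC-MS/MS. Fold change against the detergent-processed vehicle was determined per replicate from vsn-normalised intensities, across three independent experiments.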

**Q.** GTSE1 (UniProt Q9NYZ3) was tested. Which NP40-soluble protein abundance did it give?
**A.** 0.997 ± 0.036

**Q.** UniProt Q9NWU2 was tested. Which NP40-soluble protein abundance did it give?
**A.** 1.02 ± 0.056

**Q.** Which NP40-soluble protein abundance does the source give for UniProt Q9NV56 here?
**A.** 0.994 ± 0.058

**Q.** For UniProt Q9NUS5, which NP40-soluble protein abundance is on record?
**A.** 0.993 ± 0.018

**Q.** Which NP40-soluble protein abundance does the source give for RBM27 (UniProt Q9P2N5) here?
**A.** 0.995 ± 0.014

**Q.** How did the NP40-soluble protein abundance turn out when NSMCE4A (UniProt Q9NXX6) was run?
**A.** 0.991 ± 0.026

**Q.** MRPL15 (UniProt Q9P015) was tested. Which NP40-soluble protein abundance did it give?
**A.** 1.04 ± 0.044

**Q.** How did the NP40-soluble protein abundance turn out when UniProt Q9NZ01 was run?
**A.** 1.05 ± 0.054

**Q.** With PHPT1 (UniProt Q9NRX4) as the target, how does the NP40-soluble protein abundance read?
**A.** 0.989 ± 0.04

**Q.** For ASF1B (UniProt Q9NVP2), which NP40-soluble protein abundance is on record?
**A.** 0.975 ± 0.023

**Q.** UniProt Q9NXR1 and related entries was tested. Which NP40-soluble protein abundance did it give?
**A.** 1.05 ± 0.015

**Q.** Which NP40-soluble protein abundance does the source give for EIF2B3 (UniProt Q9NR50) here?
**A.** 0.986 ± 0.025

**Q.** How did the NP40-soluble protein abundance turn out when AATF (UniProt Q9NY61) was run?
**A.** 0.93 ± 0.02

**Q.** How did the NP40-soluble protein abundance turn out when CHST12 (UniProt Q9NRB3) was run?
**A.** 0.991 ± 0.016

**Q.** For UniProt Q9P0J1 and related entries, which NP40-soluble protein abundance is on record?
**A.** 0.997 ± 0.012

**Q.** For FARSB (UniProt Q9NSD9), which NP40-soluble protein abundance is on record?
**A.** 1.02 ± 0.024

**Q.** For UniProt Q9UBL3 and related entries, which NP40-soluble protein abundance is on record?
**A.** 0.98 ± 0.023

**Q.** How did the NP40-soluble protein abundance turn out when HIF1AN (UniProt Q9NWT6) was run?
**A.** 1.01 ± 0.025

**Q.** With MTPAP (UniProt Q9NVV4) as the target, how does the NP40-soluble protein abundance read?
**A.** 0.759 ± 0.034

**Q.** UniProt Q9NX74 was tested. Which NP40-soluble protein abundance did it give?
**A.** 0.985 ± 0.02

**Q.** UniProt Q9NXR7 was tested. Which NP40-soluble protein abundance did it give?
**A.** 1.02 ± 0.019

**Q.** How did the NP40-soluble protein abundance turn out when THG1L (UniProt Q9NWX6) was run?
**A.** 1.01 ± 0.01

**Q.** For UniProt Q9NRY2, which NP40-soluble protein abundance is on record?
**A.** 1.007 ± 0.0093

**Q.** How did the NP40-soluble protein abundance turn out when MIOS (UniProt Q9NXC5) was run?
**A.** 1.02 ± 0.023

**Q.** For UniProt Q9P0I2, which NP40-soluble protein abundance is on record?
**A.** 0.97 ± 0.023

**Q.** UniProt Q9P2R7 and related entries was tested. Which NP40-soluble protein abundance did it give?
**A.** 0.9695 ± 0.0067

**Q.** With NIT2 (UniProt Q9NQR4) as the target, how does the NP40-soluble protein abundance read?
**A.** 0.998 ± 0.018

**Q.** UniProt Q9NVH6 and related entries was tested. Which NP40-soluble protein abundance did it give?
**A.** 0.994 ± 0.036

**Q.** Which NP40-soluble protein abundance does the source give for ADPRHL2 (UniProt Q9NX46) here?
**A.** 0.9594 ± 0.0092

**Q.** With UCKL1 (UniProt Q9NWZ5) as the target, how does the NP40-soluble protein abundance read?
**A.** 1.015 ± 0.0084
